Some of the results follow. Residues, ends and D or L forms follow the SMILES beside them. *: point of attachment. Cbz = O=C(OCc1ccccc1)*
What was measured:
Assay in all cases: log2 fold change, soluble protein after heating vs DMSO (PISA); higher = thermal stabilisation; K562 cells, 10 uM, 30 min; active = over 0.2 and 3.5 SD of the protein, either way, in both replicates (recomputed)
erlotinib = compound: C#Cc1cccc(Nc2ncnc3cc(OCCOC)c(OCCOC)cc23)c1 [erlotinib]
How it was run: (§1)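 Aliquots of K562 cells (2×10^6 cells/mL) treated with 10 μM compound for 30 min were heated for 3 min over 48°C-58°C. After pooling and extraction in PBS with 0.5% NP-40 at 4°C, soluble protein from a 21,000xg, 90 min spin was quantified by TMTpro 16plex LC-MS/MS with channel sums equalised. Thermal stability is expressed against control samples, from duplicates, as a log2 fold change.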

Protein sequences, listed by entry. Tags and fused reporters are not part of them. Lines headed by an entry give the natural chain unless they say otherwise; changes in a name come on top.
UniProt P78363: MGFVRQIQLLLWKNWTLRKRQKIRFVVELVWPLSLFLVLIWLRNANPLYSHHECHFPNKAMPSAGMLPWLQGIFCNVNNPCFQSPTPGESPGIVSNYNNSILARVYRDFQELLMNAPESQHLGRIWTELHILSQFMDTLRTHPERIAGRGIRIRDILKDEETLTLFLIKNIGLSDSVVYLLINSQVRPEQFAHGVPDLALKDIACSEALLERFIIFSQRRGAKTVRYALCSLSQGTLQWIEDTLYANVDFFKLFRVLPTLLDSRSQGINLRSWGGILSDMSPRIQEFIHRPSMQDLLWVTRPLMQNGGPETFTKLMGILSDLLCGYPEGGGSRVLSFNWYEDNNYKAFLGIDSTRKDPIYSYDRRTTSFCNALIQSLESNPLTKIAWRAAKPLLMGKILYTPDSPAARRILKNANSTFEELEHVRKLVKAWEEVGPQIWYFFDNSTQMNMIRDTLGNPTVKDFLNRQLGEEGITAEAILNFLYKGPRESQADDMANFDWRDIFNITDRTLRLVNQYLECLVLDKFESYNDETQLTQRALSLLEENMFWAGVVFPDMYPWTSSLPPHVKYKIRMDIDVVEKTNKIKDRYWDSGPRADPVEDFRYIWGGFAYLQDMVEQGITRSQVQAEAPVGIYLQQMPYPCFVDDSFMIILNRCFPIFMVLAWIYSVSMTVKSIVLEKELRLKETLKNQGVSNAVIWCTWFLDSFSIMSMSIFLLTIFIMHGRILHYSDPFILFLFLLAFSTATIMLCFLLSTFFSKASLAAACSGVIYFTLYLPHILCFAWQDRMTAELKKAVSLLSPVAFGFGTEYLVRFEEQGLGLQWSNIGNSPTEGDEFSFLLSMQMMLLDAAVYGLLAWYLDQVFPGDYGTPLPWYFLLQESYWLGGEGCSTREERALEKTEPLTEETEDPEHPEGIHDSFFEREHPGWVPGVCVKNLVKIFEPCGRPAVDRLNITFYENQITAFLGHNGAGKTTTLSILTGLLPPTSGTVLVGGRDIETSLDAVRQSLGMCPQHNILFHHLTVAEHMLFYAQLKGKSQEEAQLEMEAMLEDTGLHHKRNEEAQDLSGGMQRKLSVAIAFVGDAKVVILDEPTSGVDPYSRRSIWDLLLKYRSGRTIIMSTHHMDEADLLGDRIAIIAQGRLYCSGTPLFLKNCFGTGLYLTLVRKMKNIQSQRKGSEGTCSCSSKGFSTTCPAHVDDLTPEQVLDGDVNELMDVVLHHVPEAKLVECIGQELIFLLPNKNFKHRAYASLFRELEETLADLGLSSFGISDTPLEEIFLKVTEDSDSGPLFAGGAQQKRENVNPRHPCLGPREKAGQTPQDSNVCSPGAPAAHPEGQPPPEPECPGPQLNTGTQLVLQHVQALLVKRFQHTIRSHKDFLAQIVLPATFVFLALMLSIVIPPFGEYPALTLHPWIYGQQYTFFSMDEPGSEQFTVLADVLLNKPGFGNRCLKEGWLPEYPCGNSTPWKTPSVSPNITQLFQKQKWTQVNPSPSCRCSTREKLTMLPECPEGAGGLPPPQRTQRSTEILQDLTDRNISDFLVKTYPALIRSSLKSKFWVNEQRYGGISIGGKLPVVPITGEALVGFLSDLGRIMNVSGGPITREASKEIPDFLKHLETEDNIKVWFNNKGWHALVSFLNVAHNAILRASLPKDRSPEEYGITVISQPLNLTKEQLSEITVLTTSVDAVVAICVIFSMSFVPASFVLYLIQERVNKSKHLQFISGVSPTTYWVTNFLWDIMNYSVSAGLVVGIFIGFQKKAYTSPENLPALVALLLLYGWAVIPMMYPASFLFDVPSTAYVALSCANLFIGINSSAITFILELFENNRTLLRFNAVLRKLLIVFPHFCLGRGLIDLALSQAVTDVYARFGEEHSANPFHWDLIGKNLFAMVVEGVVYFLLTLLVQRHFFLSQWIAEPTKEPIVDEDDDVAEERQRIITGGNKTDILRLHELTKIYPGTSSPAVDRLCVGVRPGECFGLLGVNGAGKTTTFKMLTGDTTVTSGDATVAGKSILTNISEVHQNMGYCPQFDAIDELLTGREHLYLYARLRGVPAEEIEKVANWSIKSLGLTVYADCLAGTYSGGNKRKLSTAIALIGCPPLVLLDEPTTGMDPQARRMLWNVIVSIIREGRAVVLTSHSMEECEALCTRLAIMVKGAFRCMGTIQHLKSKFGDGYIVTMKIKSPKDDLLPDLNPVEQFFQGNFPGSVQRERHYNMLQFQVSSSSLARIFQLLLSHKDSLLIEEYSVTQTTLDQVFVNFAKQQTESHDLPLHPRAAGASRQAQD
UniProt Q9NUQ8: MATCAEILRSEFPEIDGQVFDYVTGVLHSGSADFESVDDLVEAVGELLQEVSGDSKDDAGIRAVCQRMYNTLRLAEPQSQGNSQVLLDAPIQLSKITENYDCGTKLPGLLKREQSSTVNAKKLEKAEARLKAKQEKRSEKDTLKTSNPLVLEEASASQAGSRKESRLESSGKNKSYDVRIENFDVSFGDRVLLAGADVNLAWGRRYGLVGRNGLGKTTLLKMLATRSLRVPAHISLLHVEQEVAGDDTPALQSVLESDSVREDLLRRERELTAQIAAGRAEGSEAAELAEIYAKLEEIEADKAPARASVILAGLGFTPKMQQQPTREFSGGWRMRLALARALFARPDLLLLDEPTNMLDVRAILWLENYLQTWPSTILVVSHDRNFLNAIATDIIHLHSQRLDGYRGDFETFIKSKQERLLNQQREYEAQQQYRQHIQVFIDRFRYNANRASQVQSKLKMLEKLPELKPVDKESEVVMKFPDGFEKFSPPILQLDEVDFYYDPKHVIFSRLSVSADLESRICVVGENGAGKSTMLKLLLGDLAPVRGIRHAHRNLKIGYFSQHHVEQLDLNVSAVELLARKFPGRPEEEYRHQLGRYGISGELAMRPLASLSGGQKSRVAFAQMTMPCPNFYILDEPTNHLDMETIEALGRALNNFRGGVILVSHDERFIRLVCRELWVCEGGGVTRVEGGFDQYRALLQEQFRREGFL
UniProt P28288: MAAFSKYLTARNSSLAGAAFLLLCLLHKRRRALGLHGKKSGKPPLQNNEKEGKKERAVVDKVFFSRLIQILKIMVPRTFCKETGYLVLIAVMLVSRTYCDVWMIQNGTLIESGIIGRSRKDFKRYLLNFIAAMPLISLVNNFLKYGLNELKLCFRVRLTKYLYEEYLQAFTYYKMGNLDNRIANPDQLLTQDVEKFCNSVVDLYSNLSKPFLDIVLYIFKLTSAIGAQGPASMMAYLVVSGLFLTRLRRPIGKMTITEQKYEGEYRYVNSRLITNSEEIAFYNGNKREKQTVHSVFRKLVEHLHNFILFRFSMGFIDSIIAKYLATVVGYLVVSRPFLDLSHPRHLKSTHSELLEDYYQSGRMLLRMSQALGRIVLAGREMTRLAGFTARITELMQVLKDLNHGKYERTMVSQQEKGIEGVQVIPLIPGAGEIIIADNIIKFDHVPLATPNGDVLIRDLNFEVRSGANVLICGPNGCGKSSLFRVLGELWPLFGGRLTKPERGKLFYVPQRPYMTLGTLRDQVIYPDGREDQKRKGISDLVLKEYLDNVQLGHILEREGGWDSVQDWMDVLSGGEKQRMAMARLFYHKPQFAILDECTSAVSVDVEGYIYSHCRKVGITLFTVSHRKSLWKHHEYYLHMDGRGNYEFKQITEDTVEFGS
UniProt Q9NR19, whole entry, looked up: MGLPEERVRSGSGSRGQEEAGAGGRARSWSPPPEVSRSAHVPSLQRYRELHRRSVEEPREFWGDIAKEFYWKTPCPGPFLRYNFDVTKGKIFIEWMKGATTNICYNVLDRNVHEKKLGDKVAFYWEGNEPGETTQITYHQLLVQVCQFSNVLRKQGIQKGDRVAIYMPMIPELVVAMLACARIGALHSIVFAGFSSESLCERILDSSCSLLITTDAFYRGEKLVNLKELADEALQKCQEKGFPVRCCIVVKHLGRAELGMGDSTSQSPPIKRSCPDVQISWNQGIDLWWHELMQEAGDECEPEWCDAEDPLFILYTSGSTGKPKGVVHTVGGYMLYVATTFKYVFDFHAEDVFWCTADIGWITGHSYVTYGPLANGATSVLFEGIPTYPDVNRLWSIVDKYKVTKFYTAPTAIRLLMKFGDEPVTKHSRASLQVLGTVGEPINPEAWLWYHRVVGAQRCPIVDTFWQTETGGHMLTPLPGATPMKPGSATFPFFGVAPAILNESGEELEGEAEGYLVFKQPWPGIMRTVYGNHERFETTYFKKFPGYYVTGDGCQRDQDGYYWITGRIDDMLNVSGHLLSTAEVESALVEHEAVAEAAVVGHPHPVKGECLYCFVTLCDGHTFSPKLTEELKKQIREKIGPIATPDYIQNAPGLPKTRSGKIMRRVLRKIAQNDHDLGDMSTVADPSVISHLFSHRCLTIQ
UniProt Q13444: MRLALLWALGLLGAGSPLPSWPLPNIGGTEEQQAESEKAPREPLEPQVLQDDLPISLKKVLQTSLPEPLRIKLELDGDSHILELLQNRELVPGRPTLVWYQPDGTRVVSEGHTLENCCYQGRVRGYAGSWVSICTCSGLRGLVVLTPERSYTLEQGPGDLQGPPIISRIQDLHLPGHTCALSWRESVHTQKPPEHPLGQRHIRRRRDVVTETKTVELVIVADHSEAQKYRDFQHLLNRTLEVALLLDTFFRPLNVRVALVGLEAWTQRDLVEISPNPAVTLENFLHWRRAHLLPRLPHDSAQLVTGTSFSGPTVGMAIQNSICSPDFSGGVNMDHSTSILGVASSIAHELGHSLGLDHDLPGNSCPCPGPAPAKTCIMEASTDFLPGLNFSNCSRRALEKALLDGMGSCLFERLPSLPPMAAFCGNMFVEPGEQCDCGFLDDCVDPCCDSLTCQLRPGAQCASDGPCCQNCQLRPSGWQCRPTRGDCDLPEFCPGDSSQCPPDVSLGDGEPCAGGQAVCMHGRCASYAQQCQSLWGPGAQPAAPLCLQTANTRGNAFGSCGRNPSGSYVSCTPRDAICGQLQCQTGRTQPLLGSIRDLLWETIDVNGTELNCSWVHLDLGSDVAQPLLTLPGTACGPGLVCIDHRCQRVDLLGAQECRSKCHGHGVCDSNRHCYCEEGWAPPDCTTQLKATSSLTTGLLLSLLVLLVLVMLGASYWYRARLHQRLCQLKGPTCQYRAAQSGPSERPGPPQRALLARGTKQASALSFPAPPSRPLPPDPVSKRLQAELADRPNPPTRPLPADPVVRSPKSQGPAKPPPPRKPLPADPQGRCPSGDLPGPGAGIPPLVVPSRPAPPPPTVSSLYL
UniProt O95870: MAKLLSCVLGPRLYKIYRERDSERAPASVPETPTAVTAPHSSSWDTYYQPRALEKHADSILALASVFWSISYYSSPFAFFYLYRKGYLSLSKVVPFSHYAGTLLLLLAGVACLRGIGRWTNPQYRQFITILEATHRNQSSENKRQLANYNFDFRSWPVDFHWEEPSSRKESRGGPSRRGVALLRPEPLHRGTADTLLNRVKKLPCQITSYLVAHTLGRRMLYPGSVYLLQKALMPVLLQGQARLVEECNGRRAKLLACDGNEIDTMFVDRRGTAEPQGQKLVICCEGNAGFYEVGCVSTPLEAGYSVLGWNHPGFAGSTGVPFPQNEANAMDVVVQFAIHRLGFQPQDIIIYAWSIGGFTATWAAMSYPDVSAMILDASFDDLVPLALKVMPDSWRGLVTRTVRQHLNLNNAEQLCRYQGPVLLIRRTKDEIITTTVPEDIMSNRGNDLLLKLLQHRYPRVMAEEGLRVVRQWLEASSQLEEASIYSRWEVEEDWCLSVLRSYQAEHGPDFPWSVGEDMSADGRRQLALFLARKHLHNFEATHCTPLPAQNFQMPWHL

[1] = compound: C/C(=N\NC(=O)C1=CC(=CC=C1)S(=O)(=O)N2CCOCC2)/C3=C(C=CC(=C3)Cl)O
How it was run: as §1

[2] = compound: C1=CC(=C(C=C1Cl)C2=NC3=NC=CN=C3C(=N2)NC4=CC=NC=C4)F
How it was run: as §1

[3] = compound: C1=CC(=CC=C1C2=NC3=C(N2)C=C(C=C3)C(=O)N)OC4=CC=C(C=C4)Cl
How it was run: as §1

[4] = compound: C1=CC2=C(C=CC(=C2)/C=C\3/C(=O)NC(=NCC4=CC=CS4)S3)N=C1
How it was run: as §1

[5] = compound: C1=CC2=NC=CN=C2C=C1/C=C/3\C(=O)NC(=O)S3
How it was run: as §1

[6] = compound: C1=CC=C(C=C1)C2=NC(=C(N2)C3=CC=NC=C3)C4=CC(=C(C=C4)Cl)O
How it was run: as §1

[7] = compound: C1=CC=C2C(=C1)C3=NNC4=CC=CC(=C43)C2=O
How it was run: as §1

[8] = compound: C1CCN(C1)C(=O)NC2=CC=CC(=C2)NC3=NC=C(C(=N3)NCCC4=CN=CN4)Br
How it was run: as §1

[9] = compound: C1CN(CCC1(CC2=CC=C(C=C2)Cl)N)C3=NC=NC4=C3C=CN4
How it was run: as §1

IRAK-1-4 Inhibitor I = compound: C1COCCN1CCN2C3=CC=CC=C3N=C2NC(=O)C4=CC(=CC=C4)[N+](=O)[O-] [IRAK-1-4 Inhibitor I]
How it was run: as §1

ibrutinib = compound: C=CC(=O)N1CCC[C@@H](n2nc(-c3ccc(Oc4ccccc4)cc3)c3c(N)ncnc32)C1 [ibrutinib]
How it was run: as §1

[10] = compound: CC(=O)c1cnc2ccc(-c3cc(Cl)c(O)c(Cl)c3)nc2c1N[C@H]1CC[C@H](CN(C)C)CC1
How it was run: as §1

ralimetinib = compound: CC(C)(C)Cn1c(N)nc2ccc(-c3[nH]c(C(C)(C)C)nc3-c3ccc(F)cc3)nc21 [ralimetinib]
How it was run: as §1

[11] = compound: CC(C)(O)CC(=O)NCCn1ccc2ncnc(Nc3ccc(Oc4cccc(C(F)(F)F)c4)c(Cl)c3)c21
How it was run: as §1

[12] = compound: CC(C)C1=C2N=C(C=C(N2N=C1)NCC3=CC=CC=C3)NCCCCCCN
How it was run: as §1

[13] = compound: CC(C)C[C@@H](C=O)NC(=O)[C@H](CC(C)C)NC(=O)[C@H](CC(C)C)NC(=O)OCc1ccccc1
How it was run: as §1

pinometostat = compound: CC(C)N(C[C@H]1O[C@@H](n2cnc3c(N)ncnc32)[C@H](O)[C@@H]1O)[C@H]1C[C@@H](CCc2nc3cc(C(C)(C)C)ccc3[nH]2)C1 [pinometostat]
How it was run: as §1

[14] = compound: CC1=C(C2=C(C=C1)C(=O)C3=CC=CC=C3N2CCCN)C
How it was run: as §1

[15] = compound: CC1=C(C(CC(=O)N1)C2=CC=C(C=C2)C(F)(F)F)C(=O)NC3=C(C=C4C(=C3)C=NN4)F
How it was run: as §1

Target: ABCA4 (UniProt P78363)
- log2 fold change (erlotinib): inactive: 0.191
- log2 fold change [1]: inactive: -0.367
- log2 fold change [2]: inactive: 0.107
- log2 fold change [3]: inactive: -0.151
- log2 fold change [4]: inactive: 0.062
- log2 fold change [5]: inactive: -0.073
- log2 fold change [6]: inactive: 0.042
- log2 fold change [7]: inactive: 0.044
- log2 fold change [8]: inactive: 0.033
- log2 fold change [9]: inactive: 0.145
- log2 fold change (IRAK-1-4 Inhibitor I): inactive: 0.128
- log2 fold change (ibrutinib): inactive: 0.078
- log2 fold change [10]: inactive: -0.014
- log2 fold change (ralimetinib): inactive: 0.215
- log2 fold change [11]: inactive: -0.047
- log2 fold change [12]: inactive: 0.127
- log2 fold change [13]: inactive: 0.481
- log2 fold change (pinometostat): inactive: -0.06
- log2 fold change [14]: inactive: 0.082

Target: ACADSB (UniProt P45954)
- log2 fold change (erlotinib): inactive: -0.039
- log2 fold change [1]: inactive: 0.075
- log2 fold change [2]: inactive: 0.043
- log2 fold change [3]: inactive: 0.001
- log2 fold change [4]: inactive: 0.047
- log2 fold change [5]: inactive: 0.001
- log2 fold change [6]: inactive: 0.058
- log2 fold change [7]: inactive: 0.043
- log2 fold change [8]: inactive: 0.034
- log2 fold change [9]: inactive: 0.045
- log2 fold change (IRAK-1-4 Inhibitor I): inactive: 0.057
- log2 fold change (ibrutinib): inactive: 0.066
- log2 fold change [10]: inactive: -0.06
- log2 fold change (ralimetinib): inactive: 0
- log2 fold change [11]: inactive: -0.038
- log2 fold change [12]: inactive: 0.052
- log2 fold change [13]: inactive: -0.057
- log2 fold change (pinometostat): inactive: -0.072
- log2 fold change [15]: inactive: -0.098
- log2 fold change [14]: inactive: 0.072

Target: ABCE1 (UniProt P61221)
- log2 fold change (erlotinib): inactive: -0.011
- log2 fold change [1]: inactive: -0.02
- log2 fold change [2]: inactive: 0.047
- log2 fold change [3]: inactive: -0.006
- log2 fold change [4]: inactive: -0.029
- log2 fold change [5]: inactive: 0.022
- log2 fold change [6]: inactive: -0.018
- log2 fold change [7]: inactive: -0.007
- log2 fold change [8]: inactive: 0.012
- log2 fold change [9]: inactive: 0.018
- log2 fold change (IRAK-1-4 Inhibitor I): inactive: 0.004
- log2 fold change (ibrutinib): inactive: 0.01
- log2 fold change [10]: inactive: 0.04
- log2 fold change (ralimetinib): inactive: -0.045
- log2 fold change [11]: inactive: -0.031
- log2 fold change [12]: inactive: 0.083
- log2 fold change [13]: inactive: -0.06
- log2 fold change (pinometostat): inactive: -0.069
- log2 fold change [15]: inactive: 0.026
- log2 fold change [14]: inactive: -0.014

Target: ABCF3 (UniProt Q9NUQ8)
- log2 fold change (erlotinib): inactive: 0.126
- log2 fold change [1]: inactive: 0.033
- log2 fold change [2]: inactive: -0.124
- log2 fold change [3]: inactive: 0.007
- log2 fold change [4]: inactive: 0.037
- log2 fold change [5]: inactive: -0.026
- log2 fold change [6]: inactive: -0.093
- log2 fold change [7]: inactive: 0.128
- log2 fold change [8]: inactive: 0.016
- log2 fold change [9]: inactive: 0.063
- log2 fold change (IRAK-1-4 Inhibitor I): inactive: -0.052
- log2 fold change (ibrutinib): inactive: -0.014
- log2 fold change [10]: inactive: 0.098
- log2 fold change (ralimetinib): inactive: 0.114
- log2 fold change [11]: inactive: 0.222
- log2 fold change [12]: inactive: -0.092
- log2 fold change [13]: inactive: 0.107
- log2 fold change (pinometostat): inactive: 0.108
- log2 fold change [15]: inactive: -0.087
- log2 fold change [14]: inactive: 0.017

Target: ABCD3 (UniProt P28288)
- log2 fold change (erlotinib): inactive: -0.025
- log2 fold change [1]: inactive: 0.016
- log2 fold change [2]: inactive: -0.001
- log2 fold change [3]: inactive: 0.018
- log2 fold change [4]: inactive: 0.049
- log2 fold change [5]: inactive: 0.048
- log2 fold change [6]: inactive: 0.026
- log2 fold change [7]: inactive: -0.018
- log2 fold change [8]: inactive: -0.005
- log2 fold change [9]: inactive: 0.024
- log2 fold change (IRAK-1-4 Inhibitor I): inactive: 0.006
- log2 fold change (ibrutinib): inactive: -0.019
- log2 fold change [10]: inactive: 0.017
- log2 fold change (ralimetinib): inactive: -0.016
- log2 fold change [11]: inactive: 0.079
- log2 fold change [12]: inactive: 0.211
- log2 fold change [13]: inactive: -0.05
- log2 fold change (pinometostat): inactive: 0.006
- log2 fold change [15]: inactive: -0.026
- log2 fold change [14]: inactive: 0.091

Target: ACSS2 isoform 2 (UniProt Q9NR19)
- log2 fold change (erlotinib): inactive: 0.025
- log2 fold change [1]: inactive: 0.03
- log2 fold change [2]: inactive: 0.096
- log2 fold change [3]: inactive: 0.056
- log2 fold change [4]: inactive: 0.056
- log2 fold change [5]: inactive: 0.016
- log2 fold change [6]: inactive: 0.008
- log2 fold change [7]: inactive: -0.01
- log2 fold change [8]: inactive: -0.009
- log2 fold change [9]: inactive: -0.01
- log2 fold change (IRAK-1-4 Inhibitor I): inactive: 0.009
- log2 fold change (ibrutinib): inactive: -0.032
- log2 fold change [10]: inactive: 0.002
- log2 fold change (ralimetinib): inactive: -0.064
- log2 fold change [11]: inactive: -0.031
- log2 fold change [12]: inactive: -0.029
- log2 fold change [13]: inactive: 0.017
- log2 fold change (pinometostat): inactive: -0.036
- log2 fold change [15]: inactive: 0.012
- log2 fold change [14]: inactive: 0.027

Target: ADAM15 (UniProt Q13444)
- log2 fold change (erlotinib): inactive: 0.314
- log2 fold change [1]: inactive: 0.154
- log2 fold change [2]: inactive: 0.03
- log2 fold change [3]: inactive: -0.223
- log2 fold change [4]: inactive: 0.035
- log2 fold change [5]: inactive: 0.068
- log2 fold change [6]: inactive: 0.043
- log2 fold change [7]: inactive: 0.08
- log2 fold change [8]: inactive: -0.042
- log2 fold change [9]: inactive: 0.013
- log2 fold change (IRAK-1-4 Inhibitor I): inactive: -0.026
- log2 fold change (ibrutinib): inactive: 0.045
- log2 fold change [10]: inactive: -0.199
- log2 fold change (ralimetinib): inactive: 0.024
- log2 fold change [11]: inactive: 0.008
- log2 fold change [12]: inactive: 0.14
- log2 fold change [13]: inactive: 0.053
- log2 fold change (pinometostat): inactive: 0.046
- log2 fold change [14]: inactive: 0.033

Target: ABHD16A (UniProt O95870)
- log2 fold change (erlotinib): inactive: -0.036
- log2 fold change [1]: inactive: 0.02
- log2 fold change [2]: inactive: -0.048
- log2 fold change [3]: inactive: 0.161
- log2 fold change [4]: inactive: 0.208
- log2 fold change [5]: inactive: -0.094
- log2 fold change [6]: inactive: 0.036
- log2 fold change [7]: inactive: 0.009
- log2 fold change [8]: inactive: -0.005
- log2 fold change [9]: inactive: 0.023
- log2 fold change (IRAK-1-4 Inhibitor I): inactive: -0.039
- log2 fold change (ibrutinib): inactive: 0.043
- log2 fold change [10]: inactive: -0.026
- log2 fold change (ralimetinib): inactive: 0.047
- log2 fold change [11]: active: 0.361
- log2 fold change [12]: active: 0.656
- log2 fold change [13]: inactive: 0.064
- log2 fold change (pinometostat): inactive: -0.009
- log2 fold change [14]: inactive: 0.012

Source: the supplement of paper PMC10849652
